Data as given in PubChem BioAssay AID1224830 (NIAID, 2016)

- Assay: 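Regulators of TLR4 signalling towards TNF-alpha in macrophage-like cells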 (primary screen)
- System: human THP-1 monocytic leukaemia cells, TNF dual-luciferase reporter clone, PMA-differentiated to macrophage-like cells
- Reagent: siRNA pool against human genes, 50 nM
- Timing: LPS for 4 h, given about 3 days after siRNA transfection
- Conditions: bacterial LPS (TLR4 ligand), 10 ng/ml
- Measurement: 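Ratio of firefly to renilla light, scaled to the plate median and expressed as a robust z-score per replicate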
- Direction: TNF reporter robust z-score: higher = stronger TNF reporter response to LPS
- Call rule: 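a well is active when its z-score exceeds 2.8 or falls below -1.5; control wells carry no call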
Here is an unselected part of about 18,000 reagents. About 2,900 of them (16%) were called active. 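Calls are made per well; low scores hint the gene aids the LPS response, high scores that it dampens it.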 Unmarked entries are inactive. Repeated entries: four replicate wells of each siRNA pool.

Knock-down of AICDA resulted in: TNF reporter robust z-score 0.26.
For AICDA the deposit lists TNF reporter robust z-score 0.9.
Knock-down of AICDA resulted in: TNF reporter robust z-score 0.36.
After knock-down of AICDA, the record shows TNF reporter robust z-score 0.39.
Knock-down of LMBR1L resulted in: TNF reporter robust z-score 0.05.
After knock-down of LMBR1L the results were TNF reporter robust z-score 0.82.
After knock-down of LMBR1L, the record shows TNF reporter robust z-score -0.47.
Against LMBR1L, the values are TNF reporter robust z-score -0.04.
With knock-down of ZSCAN22, the record shows TNF reporter robust z-score 0.88.
With knock-down of ZSCAN22, the record shows TNF reporter robust z-score 1.02.
Against ZSCAN22 the deposit lists TNF reporter robust z-score 0.19.
ZSCAN22 gave TNF reporter robust z-score -0.17.

2 consecutive records already listed, for reference:
ZSCAN22: TNF reporter robust z-score = 0.88
ZSCAN22: TNF reporter robust z-score = 1.02

The results go on:
Against LRRC8A, the values are TNF reporter robust z-score 0.32.
For LRRC8A, the values are TNF reporter robust z-score 1.34.
LRRC8A showed TNF reporter robust z-score 0.5.
Against LRRC8A the deposit lists TNF reporter robust z-score -0.02.
Depletion of KCNJ16 resulted in: TNF reporter robust z-score 0.37.
For KCNJ16, the values are TNF reporter robust z-score -0.96.
After knock-down of KCNJ16, the screen gave TNF reporter robust z-score -0.9.
KCNJ16 showed TNF reporter robust z-score -0.56.
Against ARPC1A, the entry reads TNF reporter robust z-score -0.37.
After knock-down of ARPC1A, the record shows TNF reporter robust z-score -0.61.
Depletion of ARPC1A gave: TNF reporter robust z-score -0.73.
Against ARPC1A the deposit lists TNF reporter robust z-score -1.
With knock-down of RABGGTA the results were TNF reporter robust z-score -1.02.
After knock-down of RABGGTA, the record shows TNF reporter robust z-score -1.06.
Knock-down of RABGGTA resulted in: TNF reporter robust z-score -0.64.
For RABGGTA, the entry reads TNF reporter robust z-score -1.31.
Against TRMT9B, the values are TNF reporter robust z-score -0.57.
With knock-down of TRMT9B the results were TNF reporter robust z-score 0.37.
Against TRMT9B, the values are TNF reporter robust z-score -0.28.
For TRMT9B the deposit lists TNF reporter robust z-score -0.55.
